We go through 22 molecules from PubChem BioAssay AID328 (DTP/NCI, 2004).

The list does not hold the whole screen: it gathers tests that were run many times, whatever their T/C, doses with no T/C, and many T/C values between a quarter and a half above the control. Further doses and runs are listed elsewhere. T/C gives the treated animals as a percentage of the vehicle group. Some doses have a count of surviving animals in place of a T/C: the source holds a T/C of zero for them, seemingly a mark for toxic or unscored doses. Some survivor counts are full or nearly so, which does not show that the dose was tolerated: survival well below the control is almost never listed, so the zero probably covers shortened survival too. Survivors were counted at the toxicity check, usually on the fifth day, unless a day is given; later deaths do not show. Schedule codes are those of the source, taken here to give the interval after Q, in days (D) or hours (H), and the number of doses after X. Where survival is the endpoint, this PubChem deposit counts one and a half times the control or more as active, and values a quarter to a half above the control carry no call in these data; other NCI protocols may use other cut-offs. Some T/C values carry the count of animals alive at the toxicity check (mostly the fifth day); without a count, all were alive then.

For the assay, the system named is BDF1 mice, P388 leukemia ip, median survival T/C. The experiment in a line: NCI In Vivo Anticancer Drug Screen. Data for tumor model P388 Leukemia (intraperitoneal) in B6D2F1 (BDF1) mice. The note with it: T/C endpoint: median survival time, higher T/C = longer survival. The procedure, abridged:
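T/C = treated-group survival ÷ vehicle-control survival; tumour transplanted into mice before dosing.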

[1] abbreviates: dose: 100.0 mg/kg/injection, schedule: Q04DX003 (ip), vehicle: saline with Tween-80.
The mark [2] stands for this setting: dose: 200.0 mg/kg/injection, schedule: Q01DX009 (ip), vehicle: saline with Tween-80.
Where [3] appears, read: dose: 400.0 mg/kg/injection, schedule: Q04DX003 (ip), vehicle: Klucel (hydroxypropylcellulose) (HPC).
[4] abbreviates: dose: 200.0 mg/kg/injection, schedule: Q01DX009 (ip), vehicle: Klucel (hydroxypropylcellulose) (HPC).

Take `CN(Cc1ccc2nc(N)nc(N)c2c1)c1ccc(C(=O)NC(CCC(=O)O)C(=O)O)cc1` (configuration not stated): the survivor count is, setting by setting: (dose: 0.22 mg/kg/injection, schedule: Q01DX009 (ip), vehicle: saline) 6 of 6; (dose: 0.62 mg/kg/injection, schedule: Q01DX009 (ip), vehicle: saline) 4 of 6; (dose: 1.25 mg/kg/injection, schedule: Q01DX009 (ip), vehicle: saline) 1 of 6; (dose: 2.5 mg/kg/injection, schedule: Q01DX009 (ip), vehicle: saline) 6 of 6; (dose: 5.0 mg/kg/injection, schedule: Q01DX009 (ip), vehicle: saline) 3 of 6. For the same molecule, under “dose: 1.65 mg/kg/injection, schedule: Q04DX003 (ip), vehicle: saline”, the T/C is 136 % of control.

For `CCCCNC(C)(C)C(SSSC(c1cccs1)C(C)(C)NCCCC)c1cccs1` (configuration not stated), the T/C under setting [1] is 127 % of control.

For the molecule `COc1cc2ccc3cc[n+](C)cc3c2cc1OC`, the survivor count is, setting by setting: (dose: 100.0 mg/kg/injection, schedule: Q01DX009 (ip), vehicle: saline) 5 of 6; (dose: 200.0 mg/kg/injection, schedule: Q01DX009 (ip), vehicle: saline) 3 of 6; (dose: 200.0 mg/kg/injection, schedule: Q04DX003 (ip), vehicle: saline) 5 of 6; (dose: 400.0 mg/kg/injection, schedule: Q04DX003 (ip), vehicle: saline) 2 of 6.

Take `CCCCNc1nc(N)nc(Nc2ccc(Br)cc2)c1N=O`: the survivor count is, setting by setting: under setting [2], 6 of 6; (dose: 400.0 mg/kg/injection, schedule: Q01DX009 (ip), vehicle: saline with Tween-80) 6 of 6. Further, the T/C reads like this: (dose: 200.0 mg/kg/injection, schedule: Q04DX003 (ip), vehicle: Klucel (hydroxypropylcellulose) (HPC)) 130 % of control; under setting [3], 125 % of control [5 of 6 alive].

With `COc1cc2c(cc1OC)C(=O)C(c1ccc3c(c1)OCO3)CC2` (configuration not stated), the survivor count is recorded as 6 of 6 (dose: 200.0 mg/kg/injection, schedule: Q04DX003 (ip), vehicle: water) and 6 of 6 (dose: 400.0 mg/kg/injection, schedule: Q04DX003 (ip), vehicle: water).

As to `CCOc1cc(/C=N\Nc2nncn2N)c(C)cc1N(CCCl)CCCl`, the survivor count (dose: 100.0 mg/kg/injection, schedule: Q01DX009 (ip), vehicle: saline sonified) is given as 5 of 6; the survivor count (dose: 200.0 mg/kg/injection, schedule: Q01DX009 (ip), vehicle: saline sonified) is on record as 0 of 6; the survivor count (dose: 400.0 mg/kg/injection, schedule: Q01DX009 (ip), vehicle: saline sonified) is reported as 0 of 6.

Regarding `O=C1C=CC(=O)c2c(Cl)ccc(O)c21`, the T/C runs as follows: (dose: 1.25 mg/kg/injection, schedule: Q01DX009 (ip), vehicle: Klucel (hydroxypropylcellulose) (HPC)) 135 % of control; (dose: 2.5 mg/kg/injection, schedule: Q01DX009 (ip), vehicle: Klucel (hydroxypropylcellulose) (HPC)) 125 % of control; (dose: 5.0 mg/kg/injection, schedule: Q01DX009 (ip), vehicle: Klucel (hydroxypropylcellulose) (HPC)) 140 % of control. Also, the survivor count (dose: 10.0 mg/kg/injection, schedule: Q01DX009 (ip), vehicle: Klucel (hydroxypropylcellulose) (HPC)) is 3 of 6.

As to `O=NN(CCF)C(=O)NC1CCCCC1`, the T/C (dose: 8.0 mg/kg/injection, schedule: Q04DX003 (ip), vehicle: saline with Tween-80) is 135 % of control.

Consider `O=C1NN(c2ccccc2)C(=O)/C1=C\c1ccccc1O`, for which the T/C is, setting by setting: (dose: 87.5 mg/kg/injection, schedule: Q01DX009 (ip), vehicle: saline with Tween-80) 132 % of control; (dose: 175.0 mg/kg/injection, schedule: Q01DX009 (ip), vehicle: saline with Tween-80) 129 % of control.

With `CCN(CC)N=Nc1ccccc1-c1nc(N)c2ccccc2n1`, the T/C runs as follows: (dose: 12.5 mg/kg/injection, schedule: Q04DX003 (ip), vehicle: Klucel (hydroxypropylcellulose) (HPC)) 136 % of control; (dose: 25.0 mg/kg/injection, schedule: Q04DX003 (ip), vehicle: Klucel (hydroxypropylcellulose) (HPC)) 139 % of control.

For the molecule `CC1(C)N=C(N)N=C(N)N1c1cccc(CCCCc2ccc(S(=O)(=O)F)cc2Cl)c1`, the T/C is 140 % of control (dose: 6.25 mg/kg/injection, schedule: Q01DX009 (ip), vehicle: saline sonified) and 136 % of control (dose: 12.5 mg/kg/injection, schedule: Q01DX009 (ip), vehicle: saline sonified).

`CCc1cc2c(cc1C(=O)CBr)C(C)(C)CCC2(C)C`: the T/C is, setting by setting: (dose: 8.75 mg/kg/injection, schedule: Q04DX003 (ip), vehicle: Klucel (hydroxypropylcellulose) (HPC)) 130 % of control; (dose: 17.5 mg/kg/injection, schedule: Q04DX003 (ip), vehicle: Klucel (hydroxypropylcellulose) (HPC)) 135 % of control. The survivor count is recorded as 6 of 6 (dose: 75.0 mg/kg/injection, schedule: Q04DX003 (ip), vehicle: Klucel (hydroxypropylcellulose) (HPC)); 6 of 6 (dose: 115.0 mg/kg/injection, schedule: Q04DX003 (ip), vehicle: Klucel (hydroxypropylcellulose) (HPC)); 6 of 6 (dose: 170.0 mg/kg/injection, schedule: Q04DX003 (ip), vehicle: Klucel (hydroxypropylcellulose) (HPC)).

In the case of `C=Cc1ccccc1-c1ccccc1C(=O)OC`, the survivor count under setting [1] is reported as 6 of 6.

Take `COc1ccc(C(=NO)c2ccc(OC)cc2)cc1`: the T/C (dose: 400.0 mg/kg/injection, schedule: Q01DX009 (ip), vehicle: saline) was 127 % of control.

With `CCC1(C(C)Br)OC2=C(CC(C#N)(C#N)C(C#N)(C#N)C2)O1` (configuration not stated), the survivor count (dose: 100.0 mg/kg/injection, schedule: Q01DX001 (ip), vehicle: Klucel (hydroxypropylcellulose) (HPC)) is given as 1 of 6; the survivor count (dose: 200.0 mg/kg/injection, schedule: Q01DX001 (ip), vehicle: Klucel (hydroxypropylcellulose) (HPC)) is on record as 3 of 6; the survivor count (dose: 400.0 mg/kg/injection, schedule: Q01DX001 (ip), vehicle: Klucel (hydroxypropylcellulose) (HPC)) was 3 of 6.

As to `C[C@@H]1C[C@@]2(O[C@@H]2C)C(=O)O[C@@H]2CCN3CC=C(COC(=O)[C@]1(C)O)[C@H]23`, the survivor count (dose: 80.0 mg/kg/injection, schedule: Q01DX010 (ip), vehicle: carboxymethylcellulose (CMC)) is listed as 2 of 6.

Consider `O=C1OC(c2ccc([N+](=O)[O-])cc2)Sc2ccccc21` (configuration not stated), for which the T/C (dose: 100.0 mg/kg/injection, schedule: Q01DX009 (ip), vehicle: Klucel (hydroxypropylcellulose) (HPC)) was 127 % of control.

As to `CCCOP(=S)(N1CC1)N1CC1`, the T/C by setting is: (dose: 50.0 mg/kg/injection, schedule: Q01DX009 (ip), vehicle: Klucel (hydroxypropylcellulose) (HPC)) 135 % of control; (dose: 50.0 mg/kg/injection, schedule: Q01DX009 (ip), vehicle: other) 140 % of control; (dose: 100.0 mg/kg/injection, schedule: Q04DX003 (ip), vehicle: Klucel (hydroxypropylcellulose) (HPC)) 133 % of control. The survivor count was 1 of 6 under setting [4] and 1 of 6 under setting [3].

For the molecule `Cc1cc(C)c(C(=O)C=O)c(C)c1`, under setting [4], the survivor count is reported as 4 of 5.

As for `O=C(O)C1C(C(=O)O)C2(Cl)C(Cl)=C(Cl)C1(Cl)C2(Cl)Cl.[Cu+2]` (configuration not stated), where the note is “dose: 50.0 mg/kg/injection, schedule: Q01DX009 (ip), vehicle: saline sonified”, the survivor count was 0 of 6.

Regarding `NNC(=O)CCCCCCCCCCCCCCCO`, the survivor count is recorded as 6 of 6 (dose: 100.0 mg/kg/injection, schedule: Q01DX009 (ip), vehicle: saline with Tween-80) and 6 of 6 under setting [2].

Take `O=C(C=C(C(F)(F)F)C(F)(F)F)c1cc(Cl)ccc1Cl`: the T/C is 126 % of control (dose: 16.5 mg/kg/injection, schedule: Q04DX003 (ip), vehicle: saline with Tween-80) and 126 % of control (dose: 25.0 mg/kg/injection, schedule: Q04DX003 (ip), vehicle: saline with Tween-80). In addition, the survivor count is 5 of 6 (dose: 25.0 mg/kg/injection, schedule: Q01DX009 (ip), vehicle: saline with Tween-80); 5 of 6 (dose: 50.0 mg/kg/injection, schedule: Q01DX009 (ip), vehicle: saline with Tween-80); 6 of 6 (dose: 50.0 mg/kg/injection, schedule: Q04DX003 (ip), vehicle: saline with Tween-80).
